Results are given in words; binding and its absence hold for the method and conditions named.
Target: isolated barrel domain of P22 portal protein (res. 602–725) (bacteriophage P22) (UniProt P26744)
Assay: SEC; gel filtration chromatography of the isolated barrel (res. 602–725), in the presence of tert-butanol; both purified

Protein sequences, listed by entry. Tags and fused reporters are not part of them. Residues count along the entry.
UniProt P26744, residues 602-725: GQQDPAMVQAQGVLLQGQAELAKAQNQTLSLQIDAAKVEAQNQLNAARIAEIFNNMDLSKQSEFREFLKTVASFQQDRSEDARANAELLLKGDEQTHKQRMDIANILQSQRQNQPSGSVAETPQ

- binding: no binding
Substance: isolated barrel domain of P22 portal protein (res. 602–725) (from UniProt P26744 602-725) (domain or fragment)

Reference: PMC5290284, “Portal protein functions akin to a DNA-sensor that couples genome-packaging to icosahedral capsid maturation” (Nature Communications, 2017)
